# Measurements reported in PubChem BioAssay AID504804 (Drosophila RNAi Screening Center, 2011).
# Assay: 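Knock-downs shielding fly cells from apoptosis caused by DNA damage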 (primary screen)
# System: Drosophila Kc cells
# Reagents: long dsRNA against Drosophila genes, 0.5 µg dsRNA per well
# Duration: 96 h (48 h knock-down, then 48 h drug)
# Challenge: doxorubicin 5 µg/ml for 48 h, added 48 h after dsRNA
# Read-out: 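Luminescent ATP counts per replicate, not normalised, reflecting viable cells after 48 h dsRNA knock-down followed by 48 h of 5 µg/ml doxorubicin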
# Direction: raw ATP luminescence: higher = more viable cells, protection from doxorubicin
# Active means: 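z-score of 2 or more over plate mean in both duplicates, retained only when retests and separate dsRNAs confirm the protection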
# The deposit covers about 19,000 reagents; below is an unselected part of those with a known target gene and a result. In the full data, 47 (0.25%) got an active call. 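Signals are raw, not normalised; exact z-scores behind calls not deposited; actives needed confirmation, so some wells reaching 2 SD are inactive.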 Names joined by + are all predicted targets of the reagent.
gene,PubChem SID,"raw ATP luminescence, replicate 1","raw ATP luminescence, replicate 2",call
CG6356,SID104195818,61200,68050,inactive
Cyp313a5 (Cytochrome P450 313a5),SID104196420,51897,48983,inactive
nac (neuronally altered carbohydrate),SID104196312,58930,46563,inactive
Arr2 (Arrestin 2),SID104189462,70047,93553,inactive
CG7565,SID104190673,54457,51610,inactive
p115,SID104198605,26170,43270,inactive
Pdk (Pyruvate dehydrogenase kinase),SID104187296,69327,71507,inactive
mRpL22 (mitochondrial ribosomal protein L22),SID104199707,3.53e5,2.61e5,inactive
Osi20 (Osiris 20),SID104192360,66823,48670,inactive
Ugt36E1 (UDP-glycosyltransferase family 36 member E1),SID104182391,65793,54963,inactive
grk (gurken),SID104183332,1.08e5,70957,inactive
Tsf1 (Transferrin 1),SID104200088,3.23e5,3.00e5,inactive
Cyp28a5 (Cytochrome P450 28a5),SID104183089,85760,72547,inactive
dare (defective in the avoidance of repellents),SID104187394,63260,55827,inactive
ThrRS (Threonyl-tRNA synthetase),SID104182635,75097,56543,inactive
tef (teflon),SID104187093,58873,77957,inactive
CG5404,SID104195585,59810,51353,inactive
CG31327,SID104192811,2.18e5,2.40e5,inactive
CG34310,SID104180735,3.29e5,3.04e5,inactive
Or9a (Odorant receptor 9a),SID104198484,2.85e5,3.10e5,inactive
bbx + waw,SID104200381,2.86e5,2.70e5,inactive
CG31917 + Tfb5,SID104182154,24083,20777,inactive
CG31917 + Tfb5,SID104182155,25317,28707,inactive
Ir84a (Ionotropic receptor 84a),SID104192302,62150,59563,inactive
"GluRS-m (Glutamyl-tRNA synthetase, mitochondrial)",SID104190223,82807,59987,inactive
Madm (MLF1-adaptor molecule),SID104191921,64153,69023,inactive
fan (farinelli),SID104190722,65617,80363,inactive
scw (screw),SID104181503,2.52e5,2.51e5,inactive
scw (screw),SID104201044,2.98e5,3.13e5,inactive
NT5E-2 (Ecto-5'-nucleotidase 2),SID104186685,55063,80563,inactive
mbo (members only),SID104195915,46320,20760,inactive
CG3598,SID104198263,48720,40850,inactive
CG14354,SID104194609,51510,44970,inactive
RpL15 (Ribosomal protein L15),SID104200755,76180,85680,inactive
CG12299,SID104181950,56263,25837,inactive
CG33272,SID104188908,84473,73003,inactive
CG7548,SID104190666,72383,83800,inactive
PMCA (plasma membrane calcium ATPase),SID104196905,2.51e5,2.26e5,inactive
PMCA (plasma membrane calcium ATPase),SID104196906,2.69e5,2.58e5,inactive
CG3770,SID104184208,73677,61003,inactive
CG5381,SID104182644,48870,59793,inactive
bol (boule),SID104188756,1.60e5,1.52e5,inactive
bol (boule),SID104190236,64710,71243,inactive
bol (boule),SID104191121,54560,85437,inactive
hyx (hyrax),SID104194254,80750,38983,inactive
oys (oysgedart),SID104184995,94467,83110,inactive
oys (oysgedart),SID104186543,63537,51433,inactive
CG9265,SID104182970,48473,64603,inactive
CG9265,SID104182971,50603,42800,inactive
CG42268,SID104189963,85573,74720,inactive
CG42268,SID104190494,84090,81093,inactive
CG30398,SID104183683,57317,44543,inactive
Srx (Sulfiredoxin),SID104199797,4.53e5,3.54e5,inactive
mib1 (mind bomb 1),SID104190342,74483,62480,inactive
Ir11a (Ionotropic receptor 11a),SID104199491,3.09e5,3.01e5,inactive
Rpn1 (Regulatory particle non-ATPase 1),SID104191066,18150,15823,inactive
CG10063,SID104189480,73197,85303,inactive
"ATPsynGL (ATP synthase, subunit G-like)",SID104182819,43450,68987,inactive
CG11069,SID104194081,32257,43113,inactive
CG11975,SID104194244,80143,38073,inactive
Not1,SID104186579,30783,58017,inactive
Not1,SID104186586,62813,73710,inactive
CG42394 + CG6567,SID104192613,27277,69147,inactive
CG3862,SID104180423,1.35e5,69657,inactive
Rbbp5 + CG6434 (retired record),SID104190427,60277,62880,inactive
AGO2 (Argonaute 2),SID104189791,47733,41213,inactive
AGO2 (Argonaute 2),SID104190639,24497,26147,inactive
CG7309,SID104182837,53333,75727,inactive
AdipoR (Adiponectin receptor),SID104195559,40617,40287,inactive
Idgf4 (Imaginal disc growth factor 4),SID104198467,3.35e5,2.93e5,inactive
CG31441,SID104195515,53770,56260,inactive
crok (crooked),SID104182385,68703,62633,inactive
YME1L (YME1 like ATPase),SID104184170,78887,60313,inactive
qkr58E-1 (quaking related 58E-1),SID104184501,56730,46570,inactive
CG13036 (retired record),SID104189708,75393,55813,inactive
CG11414,SID104183902,74650,62493,inactive
disp (dispatched),SID104192168,61153,59837,inactive
Qtzl (Quetzalcoatl),SID104181013,3.00e5,3.18e5,inactive
mia (meiosis I arrest),SID104191929,64493,20890,inactive
CG6830,SID104195916,55827,50710,inactive
CG14294,SID104194566,43720,31530,inactive
CG12236,SID104197623,40270,41960,inactive
CG11149,SID104181922,32920,28587,inactive
"E(spl)malpha-BFM (Enhancer of split malpha, Bearded family member)",SID104196786,58810,63330,inactive
